Experimental data from the supplement of paper PMC7877785.
± gives the uncertainty stated by the source. Many entries were measured with a wide error.

Assay: self-splicing fitness, log relative to wild type (ln ratio); higher = more splicing; Tetrahymena group I intron in knt gene, E. coli kanamycin selection, DiMSum; sequences stand for … in CUCUCU…GGAGGGAAAAGUUAUCAGGCAUGCACCUGGUAGCUAGUCUUUAAACCAAUAGAUUGCAUCGGUUUAAAAGGCAAGACCGUCAAAUUGCGGGAAAGGGGUCAACAGCCGUUCAGUACCAAGUCUCAGGGGAAACUUUGAGAUGGCCUUGCAAAGGGUAUGGUAAUAAGCUGACGGACAUGGUCCUAACCACGCAGCCAAGUCCUAAGUCAACAGAUCUUCUGUUGAUAUGGAUGCAGUUCACAGACUAAAUGUCGGUCGGGGAAGAUGUAUUCUUCUCAUAAGAUAUAGUCGGACCUCUCCUUAAUGGGAGCUAGCGGAUGAAGUGAUGCAACACUGGAGCCGCUGGGAACUAAUUUGUAUGCGAAAGUAUAUUGAUUAGUUUUGGAGUACUCGUGGUCG
Procedure, shortened: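 A randomised library covering all eight P1ex-region intron nucleotides was built with the intron in the knt kanamycin-resistance gene on pET-22b(+) and held in E. coli BL21(DE3). Cells were grown overnight at 37°C or 30°C on LB agar, with or without 25 μg/mL kanamycin, plus 100 μg/mL carbenicillin, 50 μM IPTG and 0.2% rhamnose, and pooled colonies were amplicon-sequenced on an Illumina HiSeq 2500. DiMSum fitness is the error-weighted combination of wild-type-normalised replicate fold changes, kanamycin versus none.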

| Sequence | self-splicing fitness (ln) (37 °C) | self-splicing fitness (ln) (30 °C) |
| --- | --- | --- |
| UAUCAGCAAUAUUACGCCAC | -2.55 ± 0.62 | – |
| CUGUAGCAAUAUUACGACCC | -2.11 ± 0.5 | – |
| UAGUAGCAAUAUUACGAACA | -0.405 ± 0.42 | 0.239 ± 0.78 |
| CCCAAGCAAUAUUACGGUAA | -1.4 ± 0.16 | -2.25 ± 0.14 |
| UCUUAGCAAUAUUACGAUAU | – | -4.46 ± 0.73 |
| GGGGAGCAAUAUUACGGGCC | – | -2.65 ± 0.62 |
| UAAGAGCAAUAUUACGUUAU | -3.18 ± 0.6 | – |
| CUUGAGCAAUAUUACGCAUU | – | -5.02 ± 0.59 |
| UACUAGCAAUAUUACGCCGC | -2.13 ± 0.65 | -3.39 ± 0.54 |
| CGGUAGCAAUAUUACGUUAA | -2.44 ± 0.63 | -2.95 ± 0.62 |
| AUCAAGCAAUAUUACGGUAG | – | -4.33 ± 0.51 |
| CCACAGCAAUAUUACGCUGA | -3.16 ± 0.24 | -2.51 ± 0.12 |
| GCUGAGCAAUAUUACGGCAG | – | -3.48 ± 1.1 |
| CGAGAGCAAUAUUACGGAAC | -1.79 ± 1.2 | – |
| GCAUAGCAAUAUUACGGGCC | – | -3.7 ± 0.52 |
| AGAGAGCAAUAUUACGACGA | – | -2.89 ± 0.54 |
| UCUUAGCAAUAUUACGACCC | -3.44 ± 1 | -0.0715 ± 0.8 |
| CCGAAGCAAUAUUACGUAUA | – | -1.61 ± 0.76 |
| CAGCAGCAAUAUUACGAAAC | -4.03 ± 0.72 | – |
| GCUCAGCAAUAUUACGGUAC | -0.709 ± 0.15 | -0.486 ± 0.13 |
| UGCUAGCAAUAUUACGGAAC | -2.23 ± 1.1 | – |
| UCCAAGCAAUAUUACGGGGA | -1.27 ± 0.1 | -2.58 ± 0.15 |
| AAAGAGCAAUAUUACGGCGC | -0.545 ± 0.21 | -2.27 ± 0.2 |
| UCGGAGCAAUAUUACGUUCA | – | -2.2 ± 0.53 |
| CAACAGCAAUAUUACGCGAU | -2.63 ± 0.23 | -5.11 ± 0.45 |

Quoted from the listing:
AUCAAGCAAUAUUACGGUAG – self-splicing fitness (ln) (30 °C): -4.33 ± 0.51
GCUGAGCAAUAUUACGGCAG – self-splicing fitness (ln) (30 °C): -3.48 ± 1.1

The listing continues.

| Sequence | self-splicing fitness (ln) (37 °C) | self-splicing fitness (ln) (30 °C) |
| --- | --- | --- |
| GACAAGCAAUAUUACGUGCA | 0.0273 ± 0.077 | -0.912 ± 0.06 |
| CGCGAGCAAUAUUACGCGCG | – | -4.56 ± 0.51 |
| UCCGAGCAAUAUUACGCAUC | -2.64 ± 0.76 | – |
| CGUUAGCAAUAUUACGCAGU | – | -5.34 ± 0.72 |
| CCUUAGCAAUAUUACGGAAC | – | -2.14 ± 0.6 |
| UCUGAGCAAUAUUACGAGUC | -2.39 ± 0.62 | – |
| UGUUAGCAAUAUUACGAUGC | -0.778 ± 1 | -3.61 ± 0.53 |
| CUUAAGCAAUAUUACGCUCU | -2.81 ± 0.32 | -2.77 ± 0.13 |
| CCUUAGCAAUAUUACGCCCA | -1.71 ± 0.72 | – |
| CCAGAGCAAUAUUACGCCUA | -2.39 ± 1.1 | -2.9 ± 0.78 |
| UACGAGCAAUAUUACGUUGG | – | -4.53 ± 0.73 |
| UUCGAGCAAUAUUACGGACC | -1.54 ± 1.2 | – |
| UCAGAGCAAUAUUACGCUCC | -2.39 ± 1.1 | -3.7 ± 1.1 |
| GUUCAGCAAUAUUACGAACU | -2.56 ± 0.16 | -3.89 ± 0.14 |
| CUGCAGCAAUAUUACGAACC | -1.98 ± 1.1 | – |
| CUGAAGCAAUAUUACGUUUA | -4 ± 0.59 | – |
| GAUAAGCAAUAUUACGCAGA | – | -2.42 ± 1.2 |
| GUGUAGCAAUAUUACGCUAU | – | -4.21 ± 0.76 |
| CAGCAGCAAUAUUACGCUGG | -2.43 ± 0.17 | -2.69 ± 0.15 |
| AUCAAGCAAUAUUACGCGAU | -3.08 ± 0.3 | -4.42 ± 0.33 |
| UCCCAGCAAUAUUACGUCCG | – | -3.89 ± 0.74 |
| GGUGAGCAAUAUUACGCAAC | -2.47 ± 1.1 | – |
| GGCUAGCAAUAUUACGUGCC | -2.47 ± 0.76 | – |
| CUGUAGCAAUAUUACGUGGC | – | -4.26 ± 0.61 |
| CAGUAGCAAUAUUACGUAAC | – | -3.47 ± 1 |
